Data from the supplement of paper PMC10849652.
Some of the results follow.

By UniProt entry, the sequences of proteins in these tests, tags left out. Where a name states a change or a piece, a line headed by the entry shows the natural chain unless it says otherwise.
UniProt Q8TF05: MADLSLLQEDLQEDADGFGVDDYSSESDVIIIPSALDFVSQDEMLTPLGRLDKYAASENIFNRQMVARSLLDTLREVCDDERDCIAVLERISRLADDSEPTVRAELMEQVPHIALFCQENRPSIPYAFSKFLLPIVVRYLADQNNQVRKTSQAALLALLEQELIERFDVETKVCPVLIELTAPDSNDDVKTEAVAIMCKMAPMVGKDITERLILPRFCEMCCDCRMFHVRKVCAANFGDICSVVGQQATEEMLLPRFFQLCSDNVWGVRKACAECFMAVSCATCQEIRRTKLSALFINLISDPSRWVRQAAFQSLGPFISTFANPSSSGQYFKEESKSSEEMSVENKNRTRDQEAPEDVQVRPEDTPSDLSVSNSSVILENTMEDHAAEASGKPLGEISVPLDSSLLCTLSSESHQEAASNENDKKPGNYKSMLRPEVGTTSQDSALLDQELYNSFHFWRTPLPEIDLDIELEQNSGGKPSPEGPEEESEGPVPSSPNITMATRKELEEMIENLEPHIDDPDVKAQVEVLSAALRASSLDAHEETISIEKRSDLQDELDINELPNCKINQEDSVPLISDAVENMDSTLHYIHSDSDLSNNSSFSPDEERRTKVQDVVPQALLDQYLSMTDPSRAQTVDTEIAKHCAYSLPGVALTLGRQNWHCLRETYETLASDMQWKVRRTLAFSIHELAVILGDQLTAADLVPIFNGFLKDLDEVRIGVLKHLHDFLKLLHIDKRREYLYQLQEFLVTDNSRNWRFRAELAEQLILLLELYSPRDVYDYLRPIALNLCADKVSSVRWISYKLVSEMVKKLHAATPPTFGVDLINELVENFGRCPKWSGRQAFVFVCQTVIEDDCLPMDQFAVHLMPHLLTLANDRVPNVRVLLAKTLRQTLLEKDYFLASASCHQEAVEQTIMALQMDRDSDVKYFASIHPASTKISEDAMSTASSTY
UniProt Q9UNN8: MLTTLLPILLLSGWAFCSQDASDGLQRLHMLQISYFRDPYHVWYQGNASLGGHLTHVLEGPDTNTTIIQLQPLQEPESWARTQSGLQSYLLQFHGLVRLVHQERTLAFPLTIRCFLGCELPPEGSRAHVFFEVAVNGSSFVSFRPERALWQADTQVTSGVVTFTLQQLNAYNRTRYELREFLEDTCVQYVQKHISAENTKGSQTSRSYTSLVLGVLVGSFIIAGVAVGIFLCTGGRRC
UniProt P78527, whole entry, looked up: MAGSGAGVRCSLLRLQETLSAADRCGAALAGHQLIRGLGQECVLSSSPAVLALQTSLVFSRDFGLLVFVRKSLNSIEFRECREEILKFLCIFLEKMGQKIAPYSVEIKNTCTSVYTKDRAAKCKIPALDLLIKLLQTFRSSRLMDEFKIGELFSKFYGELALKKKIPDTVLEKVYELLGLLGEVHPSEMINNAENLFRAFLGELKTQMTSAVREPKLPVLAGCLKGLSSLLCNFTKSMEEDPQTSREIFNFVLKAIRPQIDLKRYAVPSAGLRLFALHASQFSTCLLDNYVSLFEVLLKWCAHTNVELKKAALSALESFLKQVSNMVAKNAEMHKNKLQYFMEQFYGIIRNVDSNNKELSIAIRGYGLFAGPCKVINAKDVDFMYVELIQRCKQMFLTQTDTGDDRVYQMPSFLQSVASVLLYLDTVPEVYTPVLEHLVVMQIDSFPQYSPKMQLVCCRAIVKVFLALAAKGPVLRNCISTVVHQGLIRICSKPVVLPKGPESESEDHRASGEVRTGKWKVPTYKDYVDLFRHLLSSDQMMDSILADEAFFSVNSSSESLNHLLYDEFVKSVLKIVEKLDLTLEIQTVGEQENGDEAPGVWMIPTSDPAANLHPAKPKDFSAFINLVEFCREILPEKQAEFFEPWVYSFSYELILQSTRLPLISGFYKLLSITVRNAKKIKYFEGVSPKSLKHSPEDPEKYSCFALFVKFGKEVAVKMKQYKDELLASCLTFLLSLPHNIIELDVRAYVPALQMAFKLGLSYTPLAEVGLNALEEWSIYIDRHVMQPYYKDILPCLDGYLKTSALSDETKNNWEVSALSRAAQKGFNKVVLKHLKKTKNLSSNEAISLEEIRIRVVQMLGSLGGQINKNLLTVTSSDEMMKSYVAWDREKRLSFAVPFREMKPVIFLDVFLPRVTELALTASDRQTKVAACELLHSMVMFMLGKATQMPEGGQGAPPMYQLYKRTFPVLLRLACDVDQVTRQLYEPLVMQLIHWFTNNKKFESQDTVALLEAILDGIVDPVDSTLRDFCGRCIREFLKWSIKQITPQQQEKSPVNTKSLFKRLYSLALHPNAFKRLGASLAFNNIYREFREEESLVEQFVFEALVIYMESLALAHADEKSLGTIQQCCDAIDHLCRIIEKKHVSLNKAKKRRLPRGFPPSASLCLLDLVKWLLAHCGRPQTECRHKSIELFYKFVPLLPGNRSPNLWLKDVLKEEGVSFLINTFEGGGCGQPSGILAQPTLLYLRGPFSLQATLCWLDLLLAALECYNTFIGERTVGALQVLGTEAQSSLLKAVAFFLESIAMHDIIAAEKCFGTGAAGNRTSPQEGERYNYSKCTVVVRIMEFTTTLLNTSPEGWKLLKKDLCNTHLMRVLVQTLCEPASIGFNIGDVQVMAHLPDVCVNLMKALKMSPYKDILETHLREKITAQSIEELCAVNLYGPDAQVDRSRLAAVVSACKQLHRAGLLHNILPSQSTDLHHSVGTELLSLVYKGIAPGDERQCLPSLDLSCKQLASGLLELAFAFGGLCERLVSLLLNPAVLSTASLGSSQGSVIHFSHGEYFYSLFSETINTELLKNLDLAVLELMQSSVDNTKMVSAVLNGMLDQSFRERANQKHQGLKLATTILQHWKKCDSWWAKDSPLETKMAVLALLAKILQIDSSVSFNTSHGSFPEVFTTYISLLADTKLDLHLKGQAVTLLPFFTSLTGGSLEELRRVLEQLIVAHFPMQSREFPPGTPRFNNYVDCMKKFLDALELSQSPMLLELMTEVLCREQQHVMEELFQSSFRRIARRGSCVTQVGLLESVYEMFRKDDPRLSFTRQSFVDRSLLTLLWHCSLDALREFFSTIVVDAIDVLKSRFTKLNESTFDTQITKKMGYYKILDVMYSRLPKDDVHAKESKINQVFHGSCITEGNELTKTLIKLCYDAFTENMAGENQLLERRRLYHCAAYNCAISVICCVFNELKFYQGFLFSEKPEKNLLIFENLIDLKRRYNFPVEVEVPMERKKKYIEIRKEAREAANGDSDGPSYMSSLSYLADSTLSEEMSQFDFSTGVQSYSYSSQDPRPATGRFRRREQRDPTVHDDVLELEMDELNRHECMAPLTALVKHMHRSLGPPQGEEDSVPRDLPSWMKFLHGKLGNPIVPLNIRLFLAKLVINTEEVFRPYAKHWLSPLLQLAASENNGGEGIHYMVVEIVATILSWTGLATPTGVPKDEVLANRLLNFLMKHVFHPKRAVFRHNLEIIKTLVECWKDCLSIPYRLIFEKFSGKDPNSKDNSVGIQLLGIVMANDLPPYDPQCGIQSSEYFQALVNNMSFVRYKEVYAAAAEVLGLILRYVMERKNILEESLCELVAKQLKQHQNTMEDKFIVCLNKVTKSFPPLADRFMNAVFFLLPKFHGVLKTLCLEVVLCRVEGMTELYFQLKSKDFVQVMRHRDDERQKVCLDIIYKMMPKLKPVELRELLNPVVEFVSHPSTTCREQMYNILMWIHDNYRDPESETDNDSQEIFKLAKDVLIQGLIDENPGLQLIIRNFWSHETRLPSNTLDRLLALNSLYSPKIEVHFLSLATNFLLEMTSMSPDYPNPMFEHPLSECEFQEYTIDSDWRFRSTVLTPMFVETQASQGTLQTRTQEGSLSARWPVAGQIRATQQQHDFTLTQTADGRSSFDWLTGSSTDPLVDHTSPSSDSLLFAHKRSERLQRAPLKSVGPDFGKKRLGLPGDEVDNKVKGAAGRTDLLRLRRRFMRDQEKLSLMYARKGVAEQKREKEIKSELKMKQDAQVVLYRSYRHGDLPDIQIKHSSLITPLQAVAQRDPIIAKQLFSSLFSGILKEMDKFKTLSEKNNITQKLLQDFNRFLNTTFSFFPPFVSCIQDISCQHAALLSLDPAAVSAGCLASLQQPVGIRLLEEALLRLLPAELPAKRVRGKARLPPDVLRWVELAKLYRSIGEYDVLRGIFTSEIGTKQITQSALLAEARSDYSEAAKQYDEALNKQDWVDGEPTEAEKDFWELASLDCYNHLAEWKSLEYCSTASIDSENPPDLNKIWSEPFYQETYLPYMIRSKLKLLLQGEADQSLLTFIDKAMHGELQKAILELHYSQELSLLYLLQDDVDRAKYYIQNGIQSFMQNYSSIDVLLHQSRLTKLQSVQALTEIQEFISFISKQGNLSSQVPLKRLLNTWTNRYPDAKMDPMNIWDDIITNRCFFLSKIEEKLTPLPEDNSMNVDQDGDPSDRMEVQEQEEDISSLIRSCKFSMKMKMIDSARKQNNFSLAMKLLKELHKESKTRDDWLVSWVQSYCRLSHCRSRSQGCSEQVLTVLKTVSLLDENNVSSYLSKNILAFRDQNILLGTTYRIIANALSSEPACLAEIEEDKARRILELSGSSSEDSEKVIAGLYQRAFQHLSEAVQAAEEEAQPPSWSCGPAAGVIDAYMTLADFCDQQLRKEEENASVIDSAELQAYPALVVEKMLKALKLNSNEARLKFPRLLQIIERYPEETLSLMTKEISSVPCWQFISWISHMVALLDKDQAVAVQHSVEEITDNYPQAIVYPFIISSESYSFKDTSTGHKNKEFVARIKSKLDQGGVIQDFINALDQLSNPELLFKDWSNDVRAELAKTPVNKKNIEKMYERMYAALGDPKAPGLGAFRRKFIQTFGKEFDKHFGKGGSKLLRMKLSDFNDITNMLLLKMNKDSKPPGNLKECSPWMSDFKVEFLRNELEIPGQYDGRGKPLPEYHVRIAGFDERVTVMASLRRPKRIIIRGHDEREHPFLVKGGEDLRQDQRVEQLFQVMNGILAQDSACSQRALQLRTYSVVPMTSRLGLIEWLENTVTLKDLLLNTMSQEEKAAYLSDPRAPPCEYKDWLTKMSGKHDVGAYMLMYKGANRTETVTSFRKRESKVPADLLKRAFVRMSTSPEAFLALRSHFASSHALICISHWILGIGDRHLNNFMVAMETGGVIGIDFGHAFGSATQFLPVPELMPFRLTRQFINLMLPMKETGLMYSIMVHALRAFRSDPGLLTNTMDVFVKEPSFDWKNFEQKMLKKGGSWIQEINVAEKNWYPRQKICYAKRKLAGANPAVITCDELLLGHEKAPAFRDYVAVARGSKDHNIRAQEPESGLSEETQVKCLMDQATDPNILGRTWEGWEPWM
UniProt Q13162: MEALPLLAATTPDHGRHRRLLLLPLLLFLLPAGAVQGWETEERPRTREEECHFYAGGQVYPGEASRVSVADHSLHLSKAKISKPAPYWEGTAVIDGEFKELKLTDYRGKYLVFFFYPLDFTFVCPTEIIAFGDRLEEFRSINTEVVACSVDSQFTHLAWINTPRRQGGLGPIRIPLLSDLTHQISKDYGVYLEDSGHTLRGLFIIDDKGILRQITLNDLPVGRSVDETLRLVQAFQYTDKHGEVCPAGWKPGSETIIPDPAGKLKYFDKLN
UniProt P42785: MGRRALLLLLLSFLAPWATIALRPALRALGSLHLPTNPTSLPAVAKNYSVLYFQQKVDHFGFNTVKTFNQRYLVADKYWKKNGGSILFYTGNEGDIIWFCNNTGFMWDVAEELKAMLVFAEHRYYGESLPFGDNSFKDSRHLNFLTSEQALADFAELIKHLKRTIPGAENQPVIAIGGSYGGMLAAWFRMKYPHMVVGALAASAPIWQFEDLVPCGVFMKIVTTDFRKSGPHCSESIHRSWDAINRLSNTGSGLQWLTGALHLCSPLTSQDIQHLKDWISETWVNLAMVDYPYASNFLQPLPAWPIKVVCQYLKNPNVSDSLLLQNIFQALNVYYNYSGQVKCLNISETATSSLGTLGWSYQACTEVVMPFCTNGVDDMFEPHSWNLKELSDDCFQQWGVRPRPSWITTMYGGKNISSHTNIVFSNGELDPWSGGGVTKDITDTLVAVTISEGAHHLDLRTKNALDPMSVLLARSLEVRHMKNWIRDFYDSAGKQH
UniProt Q9ULR3: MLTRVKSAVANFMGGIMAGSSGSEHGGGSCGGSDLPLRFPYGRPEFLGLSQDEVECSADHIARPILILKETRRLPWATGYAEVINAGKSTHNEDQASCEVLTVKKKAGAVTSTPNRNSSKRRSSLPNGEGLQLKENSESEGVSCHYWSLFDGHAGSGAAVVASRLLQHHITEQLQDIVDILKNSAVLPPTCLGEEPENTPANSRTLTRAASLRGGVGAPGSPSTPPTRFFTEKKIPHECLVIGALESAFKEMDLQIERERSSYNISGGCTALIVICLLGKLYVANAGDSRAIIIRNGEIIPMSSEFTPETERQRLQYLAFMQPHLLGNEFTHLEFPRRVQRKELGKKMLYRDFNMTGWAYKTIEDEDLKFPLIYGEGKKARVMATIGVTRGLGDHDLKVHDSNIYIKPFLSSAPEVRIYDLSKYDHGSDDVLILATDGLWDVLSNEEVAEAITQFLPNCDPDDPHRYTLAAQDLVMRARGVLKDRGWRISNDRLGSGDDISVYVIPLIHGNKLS

Compound: C1=CC=C(C=C1)[C@H](COC2=CC3=C(C=C2)NC(=O)N3)NC(=O)C4=CC=CN(C4=O)CC5=CC(=C(C=C5)F)F
Test: log2 fold change, soluble protein after heating vs DMSO (PISA); higher = thermal stabilisation; K562 cells, 10 uM, 30 min; active = over 0.2 and 3.5 SD of the protein, either way, in both replicates (recomputed)
How it was run: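 Quantification of soluble protein used TMTpro 16plex LC-MS/MS, with channel sums equalised. Samples were the supernatant after 21,000xg for 90 min of pooled aliquots from K562 cells (2×10^6 cells/mL) treated with 10 μM compound for 30 min, heated for 3 min over 48°C-58°C, and extracted in PBS with 0.5% NP-40 at 4°C. Values, from duplicates, describe thermal stability against control samples on a log2 fold-change scale.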

Question: Which log2 fold change does the source give for PRKAG2 (UniProt Q9UGJ0) here?
Answer: Its log2 fold change is inactive: -0.025.

Question: Which log2 fold change does the source give for PPP2R5C isoform 5 (UniProt Q13362) here?
Answer: The log2 fold change was inactive: -0.039.

Question: Which log2 fold change does the source give for PPME1 (UniProt Q9Y570) here?
Answer: The log2 fold change was inactive: -0.039.

Question: Which log2 fold change does the source give for PRKAB2 (UniProt O43741) here?
Answer: The log2 fold change was inactive: -0.133.

Question: For PREPL (UniProt Q4J6C6), which log2 fold change is on record?
Answer: Its log2 fold change is inactive: -0.025.

Question: For PRPF19 (UniProt Q9UMS4), which log2 fold change is on record?
Answer: The log2 fold change was inactive: 0.023.

Question: PRPF18 (UniProt Q99633) was tested. Which log2 fold change did it give?
Answer: Its log2 fold change is inactive: -0.037.

Question: How did the log2 fold change turn out when PPP1R14C (UniProt Q8TAE6) was run?
Answer: Its log2 fold change is inactive: -0.134.

Question: PPP5C (UniProt P53041) was tested. Which log2 fold change did it give?
Answer: The log2 fold change was inactive: -0.011.

Question: How did the log2 fold change turn out when PPP4R1 (UniProt Q8TF05) was run?
Answer: Its log2 fold change is inactive: -0.049.

Question: PRAME (UniProt P78395) was tested. Which log2 fold change did it give?
Answer: The log2 fold change was inactive: 0.016.

Question: For PRRC2B (UniProt Q5JSZ5), which log2 fold change is on record?
Answer: Its log2 fold change is inactive: -0.005.

Question: PRKCQ (UniProt Q04759) was tested. Which log2 fold change did it give?
Answer: Its log2 fold change is inactive: -0.064.

Question: PRKACA (UniProt P17612) was tested. Which log2 fold change did it give?
Answer: The log2 fold change was inactive: -0.01.

Question: For PRPF40A (UniProt O75400), which log2 fold change is on record?
Answer: The log2 fold change was inactive: -0.008.

Question: With PROCR (UniProt Q9UNN8) as the target, how does the log2 fold change read?
Answer: The log2 fold change was inactive: 0.056.

Question: For PRKDC (UniProt P78527), which log2 fold change is on record?
Answer: The log2 fold change was inactive: -0.017.

Question: For PRDX4 (UniProt Q13162), which log2 fold change is on record?
Answer: Its log2 fold change is inactive: -0.023.

Question: With PRKCSH (UniProt P14314) as the target, how does the log2 fold change read?
Answer: Its log2 fold change is inactive: -0.022.

Question: PRKCSH (UniProt K7ELL7) was tested. Which log2 fold change did it give?
Answer: Its log2 fold change is inactive: 0.095.

Question: For PRDX2 (UniProt P32119), which log2 fold change is on record?
Answer: Its log2 fold change is inactive: -0.005.

Question: PRCP (UniProt P42785) was tested. Which log2 fold change did it give?
Answer: Its log2 fold change is inactive: 0.023.

Question: PRPF38B (UniProt Q5VTL8) was tested. Which log2 fold change did it give?
Answer: Its log2 fold change is inactive: 0.038.

Question: For PPP2R5D (UniProt Q14738), which log2 fold change is on record?
Answer: The log2 fold change was inactive: -0.016.

Question: For PPP2CB (UniProt P62714), which log2 fold change is on record?
Answer: The log2 fold change was inactive: -0.01.

Question: For PPP1R11 (UniProt O60927), which log2 fold change is on record?
Answer: The log2 fold change was inactive: -0.018.

Question: PROS1 (UniProt P07225) was tested. Which log2 fold change did it give?
Answer: Its log2 fold change is inactive: 0.003.

Question: PRKCD (UniProt Q05655) was tested. Which log2 fold change did it give?
Answer: Its log2 fold change is inactive: -0.05.

Question: For PRIM2 (UniProt P49643), which log2 fold change is on record?
Answer: The log2 fold change was inactive: -0.07.

Question: Which log2 fold change does the source give for PPP1R12A (UniProt O14974) here?
Answer: Its log2 fold change is inactive: 0.005.

Question: For PPP1CB (UniProt P62140), which log2 fold change is on record?
Answer: Its log2 fold change is inactive: 0.007.

Question: PREP (UniProt P48147) was tested. Which log2 fold change did it give?
Answer: Its log2 fold change is inactive: -0.1.

Question: PRMT9 (UniProt Q6P2P2) was tested. Which log2 fold change did it give?
Answer: The log2 fold change was inactive: 0.031.

Question: How did the log2 fold change turn out when PPM1F (UniProt P49593) was run?
Answer: The log2 fold change was inactive: -0.038.

Question: Which log2 fold change does the source give for PRPF3 (UniProt O43395) here?
Answer: The log2 fold change was inactive: -0.09.

Question: How did the log2 fold change turn out when PRPF31 (UniProt Q8WWY3) was run?
Answer: The log2 fold change was inactive: -0.07.

Question: Which log2 fold change does the source give for PPT1 (UniProt P50897) here?
Answer: The log2 fold change was inactive: 0.047.

Question: For PPM1H (UniProt Q9ULR3), which log2 fold change is on record?
Answer: Its log2 fold change is inactive: -0.009.

Question: Which log2 fold change does the source give for PPP1R35 (UniProt Q8TAP8) here?
Answer: The log2 fold change was inactive: 0.01.
